Data as given in PubChem BioAssay AID504467 (National Center for Advancing Translational Sciences (NCATS), 2011).
The whole screen tested about 330,000 compounds, of which about 7,700 (2.3%) were called active. This list was built around the results that the source calls inconclusive (neither active nor inactive); the mix of calls is not that of the screen. Calls come from the whole dose curve; as a rule, active = well fitted inhibition curve with a large enough effect; inconclusive = small, poorly fitted or top-dose-only effect, or effect the other way; inactive = flat fitted curve, though single readings scatter. Where the call is inconclusive, the potency comes from a doubtful curve fit.

experiment: qHTS screen for small molecules that inhibit ELG1-dependent DNA repair in human embryonic kidney (HEK293T) cells expressing luciferase-tagged ELG1; settings: HEK293T ELG1-luciferase reporter, luminescence, 16 h, DNA damage induced by 5-fluorouridine; activity change, negative = inhibition: at 46.1 µM (top of the series); note: nearly all actives have a fitted effect of over 55% in size
In short: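 Luminescence from the luciferase reporter, measured 30 min after ONE-Glo reagent at room temperature, was the read-out. Beforehand, 2,000 cells per well were exposed for 16 hr at 37 °C to 5-fluorouridine together with compound or vehicle.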
% is set by controls: 0 for no effect and ±100 for the full control effect; potency is the fitted concentration of half-maximal effect.

Row | Structure (SMILES) | Potency | activity change, negative = inhibition
1 | Oc1ccc(N2CCN(c3ncnc4sc(-c5ccccc5)cc34)CC2)cc1 | inconclusive: 29.1 µM [inhibitor, single point] | –
2 | O=C1c2ccccc2C(=O)c2c(O)c(O)cc(O)c21 | – | inactive: -15.1%
3 | Cc1cnccc1CNC(=O)C1CCC(=O)N(Cc2ccc(Cl)cc2)C1 (centres undefined) | – | inactive: 12.9%
4 | O=C(Cn1cc(C(F)(F)F)ccc1=O)N/N=C/c1ccc(F)cc1 | – | inactive: -7.44%
5 | CC(C)(C)c1ccc(C(=O)N2CCC(C(=O)NC3CC3)CC2)cc1 | inconclusive: 20.6 µM [activator, partial curve] | –
6 | CCCn1nc(C(=O)Nc2nnc(CC)s2)c2ccccc2c1=O | inconclusive: 18.3 µM [inhibitor, single point] | –
7 | Cc1ccc(C)c(NC(=O)c2cc3ccccc3o2)c1 | inconclusive: 18.3 µM [activator, partial curve] | –
8 | CNc1nc2c3ccccc3n(C(C)=O)c2s1 | inconclusive: 29.1 µM [activator, single point] | –
9 | COc1ccc(CN2C[C@H]3CCCN3c3cc(Br)ccc3S2(=O)=O)cc1 | inconclusive: 1.3 µM [inhibitor, single point] | –
10 | COc1ccc(S(=O)(=O)N2CCc3ccccc32)cc1C(=O)OCc1nnc(-c2ccccc2)o1 | inconclusive: 29.1 µM [inhibitor, single point] | –
11 | Cc1c(C(=O)NCC(c2ccco2)N2CCCC2)sc2ccccc12 (centres undefined) | inconclusive: 25.9 µM [inhibitor, partial curve] | –
12 | Cc1ccc(-c2nnn(CCOc3cccc(Br)c3)n2)cc1 | inconclusive: 23.1 µM [activator, partial curve, poor fit] | –
13 | CCOC(=O)c1ccc(NC(=S)NCc2ccco2)cc1 | inconclusive: 20.6 µM [inhibitor, single point] | –
14 | O=C(NC1=NCCS1)c1ccc(Cl)c(S(=O)(=O)N2CCCCCC2)c1 | inconclusive: 20.6 µM [inhibitor, single point] | –
15 | CN(C)CCNC(=O)c1sc2cccc(F)c2c1Cl | inconclusive: 20.6 µM [activator, single point] | –
16 | Cc1cc(C(=O)CN2C(=O)NC3(CCCc4ccccc43)C2=O)c(C)n1Cc1cccs1 (centres undefined) | – | inactive: -22.2%
17 | Cc1cc(C)c(C(=O)COc2cccnc2[N+](=O)[O-])cc1C | inconclusive: 20.6 µM [activator, single point] | –
18 | CCCS(=O)(=O)N1CCC(C(=O)NCCC(C)C)CC1 | – | inactive: -14.4%
19 | Cc1cccc(C)c1N=Cc1c(C(F)(F)F)[nH][nH]c1=O | – | inactive: 7.23%
20 | Cc1ccc(-c2oc3ccccc3c(=O)c2O)cc1 | inconclusive: 16.4 µM [activator, partial curve] | –
21 | COc1ccc(/C(N)=N/OC(=O)c2ccc(C)c([N+](=O)[O-])c2)cc1 | inconclusive: 20.6 µM [activator, partial curve] | –
22 | C[C@H](CO)N1C[C@H](C)[C@@H](CN(C)S(C)(=O)=O)Oc2ccc(NC(=O)C3CC3)cc2C1=O | inconclusive: 16.4 µM [activator, single point] | –
23 | O=C(CSc1ncnc2nc[nH]c12)N1CCN(c2ccc(Cl)cc2)CC1 | active: 18.4 µM | –

Row | Structure (SMILES) | Potency | activity change, negative = inhibition
24 | O=C(NCCOc1nc(N2CCCCC2)nc(N2CCCCC2)n1)Nc1ccccc1 | inconclusive: 29.1 µM [inhibitor, single point] | –
25 | CCn1c(NCc2cccs2)nc2ccccc21 | inconclusive: 25.9 µM [activator, partial curve, poor fit] | –
26 | O=C1c2ccccc2C(=O)c2c(Nc3ccc(CCO)cc3)ccc(O)c21 | active: 14.6 µM | –
27 | CCCC(C)C(=O)OCC(=O)Nc1ccc(Br)cc1 (centres undefined) | inconclusive: 18.3 µM [activator, partial curve, poor fit] | –
28 | CC(=O)c1cccc(NC(=O)CSCc2ccccc2)c1 | inconclusive: 7.31 µM [activator, partial curve] | –
29 | CC1CCCCC1NC(=O)CCNS(=O)(=O)c1ccc2c(c1)CCC(=O)N2 (centres undefined) | – | inactive: 13.3%
30 | Cc1noc(C)c1C(=O)NCC(=O)Nc1ccccc1Br | inconclusive: 3.66 µM [activator, single point] | –
31 | O=C(Nc1ccc(N2CCOCC2)cc1)c1cc2ccccc2o1 | inconclusive: 1.64 µM [activator, partial curve] | –
32 | Oc1cc2ccccc2cc1-c1n[nH]c(=S)o1 | inconclusive: 13 µM [activator, single point] | –
33 | O=C(Cn1cnc2ccccc21)Nc1cccc([N+](=O)[O-])c1 | inconclusive: 6.51 µM [inhibitor, partial curve, poor fit] | –
34 | C=CCn1c(=N)n(CC(O)COc2ccc(OC)cc2)c2ccccc21 (centres undefined) | inconclusive: 20.6 µM [inhibitor, single point] | –
35 | O=C(CSc1nnc(COc2ccc(Cl)cc2)o1)N1CCCCC1 | – | inactive: -1.67%
36 | C[C@H](N)c1nnc(SCC(=O)N(C)C)o1 | inconclusive: 14.6 µM [activator, partial curve, poor fit] | –
37 | CCCCCCC[C@@H](C/C=C/CCC(=O)N(C)C/C(=C/Cl)C/C(=C\C(=O)N1C[C@H](O)CC1=O)OC)OC | inconclusive: 29.1 µM [inhibitor, single point] | –
38 | CC(=O)C(C)Oc1ccc2c3c(c(=O)oc2c1)CCCC3 (centres undefined) | inconclusive: 16.4 µM [activator, partial curve] | –
39 | OC[C@H]1OC(Nc2ccc(N=Nc3ccccc3)cc2)[C@@H](O)[C@@H](O)[C@@H]1O (some centres undefined) | inconclusive: 18.3 µM [activator, partial curve] | –
40 | CCCCCC(=O)Nc1ccc(Cl)cn1 | inconclusive: 16.4 µM [activator, partial curve] | –
41 | COc1ccccc1Nc1ccc(N)cc1 | inconclusive: 20.6 µM [inhibitor, single point] | –
42 | COc1ccc(C(=O)NC(=S)NNC(=O)c2c(-c3ccccc3)noc2C)cc1OC | inconclusive: 4.11 µM [inhibitor, single point] | –
43 | c1cncc(CNc2cccc(-c3nc4ccccc4[nH]3)c2)c1 | inconclusive: 5.17 µM [activator, partial curve] | –
44 | CCOC(=O)c1ccc(NC(=O)c2nn(CC)cc2Br)cc1 | inconclusive: 29.1 µM [activator, single point] | –
45 | COc1cc(NC(=S)NCc2cccs2)cc(OC)c1 | – | inactive: -0.465%
46 | O=S(=O)(Nc1ccc(Cc2ccncc2)cc1)c1cccs1 | inconclusive: 25.9 µM [inhibitor, single point] | –

Fetched by compound from the list above:
Row | Structure (SMILES) | Potency | activity change, negative = inhibition
46 | O=S(=O)(Nc1ccc(Cc2ccncc2)cc1)c1cccs1 | inconclusive: 25.9 µM [inhibitor, single point] | –
6 | CCCn1nc(C(=O)Nc2nnc(CC)s2)c2ccccc2c1=O | inconclusive: 18.3 µM [inhibitor, single point] | –

Going on with the list.

Row | Structure (SMILES) | Potency | activity change, negative = inhibition
47 | COc1ccc(C(=O)CSc2nnc(C3CC3)n2N)cc1 | inconclusive: 29.1 µM [activator, single point] | –
48 | N#CC(c1ccc(F)cc1)c1ccc(C(=O)c2ccc(F)cc2)cc1 (centres undefined) | inconclusive: 23.1 µM [inhibitor, partial curve] | –
49 | C=C(CCC(=O)c1ccccc1)C(=O)c1ccccc1 | – | inactive: -29.7%
50 | C[C@H]1CCC(=O)N([C@H](COc2ccccc2)Cc2ccccc2)CC1 | inconclusive: 4.11 µM [activator, single point] | –
51 | O=C(O)c1cccc(N/N=C/c2ccc(OC(F)(F)F)cc2)c1 | inconclusive: 0.058 µM [activator, full curve, poor fit] | –
52 | CCO[C@@H]1OC(C(=O)N2CCN(Cc3ccccc3)CC2)=C[C@H](C2CC2)[C@H]1CCCO | – | inactive: 14.5%
53 | Cc1ccc(N=Nc2c(N)n(-c3ccccc3)[nH]c2=O)cc1 | inconclusive: 20.6 µM [activator, partial curve] | –
54 | Cc1ccc(Nc2c(-c3ccccn3)nc3ccc(C)cn23)cc1 | inconclusive: 25.9 µM [activator, single point] | –
55 | O=S(=O)(c1ccccc1)n1nc(-c2ccccc2)nc1NCc1ccco1 | inconclusive: 25.9 µM [activator, single point] | –
56 | CCOC(=O)c1sc(NC(=O)c2ccc(Cl)s2)cc1C | inconclusive: 3.66 µM [activator, partial curve] | –
57 | CCn1nc(C(=O)Nc2ccccc2N2CCCC2)c2ccccc2c1=O | inconclusive: 29.1 µM [inhibitor, single point] | –
58 | CCC(C)c1ccc(NC(=S)Nc2ccc(OC)c(OC)c2)cc1 (centres undefined) | – | inactive: -15.9%
59 | Cc1ccc(C)c(N(CC(=O)NN=C2CCN(C)CC2)S(=O)(=O)c2ccccc2)c1 | inconclusive: 9.2 µM [activator, partial curve, poor fit] | –
60 | COc1cccc(/C=N/NC(=O)c2ccccc2)c1OS(=O)(=O)c1ccccc1 | inconclusive: 23.1 µM [inhibitor, single point] | –
61 | CC1(C)CC(=O)c2ccc(OCc3ccc([N+](=O)[O-])cc3)cc2O1 | inconclusive: 3.26 µM [activator, partial curve] | –
62 | O=C(c1ccco1)N1CCN(C(=S)Nc2ccc(Br)cc2Cl)CC1 | – | inactive: -4.12%
63 | CCN1CCN(CCNC(=O)c2ccc(/C=C3/Sc4ccccc4N(Cc4ccccc4C)C3=O)cc2)CC1 | inconclusive: 29.1 µM [activator, single point] | –
64 | CCN(CC)c1cccc(OC(=O)c2cccnc2Cl)c1 | – | inactive: 11.2%
65 | O=C(NN1CCOCC1)c1cn(-c2ccccc2)nc1-c1cccs1 | inconclusive: 29.1 µM [activator, single point] | –
66 | CC(C)Oc1ccc(Br)cc1/C=N\NC(N)=S | – | inactive: -13.3%
67 | CCc1nnc(NC(=S)Nc2ccccc2)s1 | inconclusive: 6.51 µM [activator, partial curve] | –
68 | CC(C)CC(=O)NC(=S)Nc1nc(-c2ccc(Cl)cc2)cs1 | – | inactive: 22.7%
69 | CCc1nnc(NC(=O)CCC(=O)NC2CCCCCC2)s1 | inconclusive: 32.6 µM [activator, partial curve, poor fit] | –

3 structures out of the list, ordered by heavy-atom count, descending:
Row | Structure (SMILES) | Potency | activity change, negative = inhibition
63 | CCN1CCN(CCNC(=O)c2ccc(/C=C3/Sc4ccccc4N(Cc4ccccc4C)C3=O)cc2)CC1 | inconclusive: 29.1 µM [activator, single point] | –
65 | O=C(NN1CCOCC1)c1cn(-c2ccccc2)nc1-c1cccs1 | inconclusive: 29.1 µM [activator, single point] | –
49 | C=C(CCC(=O)c1ccccc1)C(=O)c1ccccc1 | – | inactive: -29.7%
